Article doi:10.1101/2023.03.29.534722
These are yes or no findings as the source states them, for the method shown. Some results given as binding are weak or reduced against the parent protein; the word gives no strength. Where a sequence is shown, tags or fusion partners need not be part of it.

The chains behind the UniProt entries cited, without tags or fusion partners.
UniProt P53224: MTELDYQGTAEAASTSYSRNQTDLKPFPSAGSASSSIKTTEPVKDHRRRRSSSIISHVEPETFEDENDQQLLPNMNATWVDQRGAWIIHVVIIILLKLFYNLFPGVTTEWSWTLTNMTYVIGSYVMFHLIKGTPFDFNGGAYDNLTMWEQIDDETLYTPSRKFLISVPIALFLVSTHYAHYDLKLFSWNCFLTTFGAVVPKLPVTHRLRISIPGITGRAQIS

T1: ALFA-Lcb2 (N-terminally ALFA-tagged Lcb2) (yeast) (UniProt P40970)
T1 sequence: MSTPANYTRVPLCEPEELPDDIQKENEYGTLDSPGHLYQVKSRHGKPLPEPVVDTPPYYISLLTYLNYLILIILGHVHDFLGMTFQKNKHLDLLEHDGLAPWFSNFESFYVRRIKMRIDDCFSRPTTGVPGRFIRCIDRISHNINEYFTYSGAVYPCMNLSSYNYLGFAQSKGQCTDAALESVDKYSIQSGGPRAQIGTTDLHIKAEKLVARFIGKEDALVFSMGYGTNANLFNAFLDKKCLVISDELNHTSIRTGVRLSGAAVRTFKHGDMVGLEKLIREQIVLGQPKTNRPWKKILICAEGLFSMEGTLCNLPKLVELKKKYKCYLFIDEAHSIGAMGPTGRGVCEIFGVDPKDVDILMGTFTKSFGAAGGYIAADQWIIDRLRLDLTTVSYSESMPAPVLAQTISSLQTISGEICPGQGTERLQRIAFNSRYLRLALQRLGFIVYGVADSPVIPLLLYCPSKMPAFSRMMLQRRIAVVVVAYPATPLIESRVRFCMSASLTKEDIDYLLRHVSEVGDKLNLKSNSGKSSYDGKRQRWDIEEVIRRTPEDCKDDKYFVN

B1: Lcb1-GFP (protein, UniProt P25045 1-558)
chain: MAHIPEVLPKSIPIPAFIVTTSSYLWYYFNLVLTQIPGGQFIVSYIKKSHHDDPYRTTVEIGLILYGIIYYLSKPQQKKSLQAQKPNLSPQEIDALIEDWEPEPLVDPSATDEQSWRVAKTPVTMEMPIQNHITITRNNLQEKYTNVFNLASNNFLQLSATEPVKEVVKTTIKNYGVGACGPAGFYGNQDVHYTLEYDLAQFFGTQGSVLYGQDFCAAPSVLPAFTKRGDVIVADDQVSLPVQNALQLSRSTVYYFNHNDMNSLECLLNELTEQEKLEKLPAIPRKFIVTEGIFHNSGDLAPLPELTKLKNKYKFRLFVDETFSIGVLGATGRGLSEHFNMDRATAIDITVGSMATALGSTGGFVLGDSVMCLHQRIGSNAYCFSACLPAYTVTSVSKVLKLMDSNNDAVQTLQKLSKSLHDSFASDDSLRSYVIVTSSPVSAVLHLQLTPAYRSRKFGYTCEQLFETMSALQKKSQTNKFIEPYEEEEKFLQSIVDHALINYNVLITRNTIVLKQETLPIVPSLKICCNAAMSPEELKNACESVKQSILACCQESNK
B2: GFP-Orm2 (protein, UniProt Q06144 1-216)
chain: MIDRTKNESPAFEESPLTPNVSNLKPFPSQSNKISTPVTDHRRRRSSSVISHVEQETFEDENDQQMLPNMNATWVDQRGAWLIHIVVIVLLRLFYSLFGSTPKWTWTLTNMTYIIGFYIMFHLVKGTPFDFNGGAYDNLTMWEQINDETLYTPTRKFLLIVPIVLFLISNQYYRNDMTLFLSNLAVTVLIGVVPKLGITHRLRISIPGITGRAQIS

target: T1, ALFA-Lcb2 (N-terminally ALFA-tagged Lcb2) (yeast); test: co-recruitment by nanobody re-localisation

binding, binds:
GFP-Orm1 (from UniProt P53224 1-222), B1, B2
